The target in this assay is HA-tagged SCUBE1 (human) (UniProt Q8IWY4). Kind of assay: co-IP; HA-SCUBE1 and MYC-SCUBE3 co-transfected into HEK-293T cells; RIPA lysate after 48 h; precipitated with HA antibody on protein A/G magnetic beads at 4°C overnight; three RIPA washes; western blot with anti-Myc and anti-HA; three replicates quantified with ImageJ.

Protein sequences, listed by entry. Tags and fused reporters are not part of them. Lines headed by an entry give the natural chain unless they say otherwise; changes in a name come on top. Chains listed by the source or under a name are the forms on record and can include a tag or linker. Residues count along the entry.
UniProt Q8IWY4, residues 24-988: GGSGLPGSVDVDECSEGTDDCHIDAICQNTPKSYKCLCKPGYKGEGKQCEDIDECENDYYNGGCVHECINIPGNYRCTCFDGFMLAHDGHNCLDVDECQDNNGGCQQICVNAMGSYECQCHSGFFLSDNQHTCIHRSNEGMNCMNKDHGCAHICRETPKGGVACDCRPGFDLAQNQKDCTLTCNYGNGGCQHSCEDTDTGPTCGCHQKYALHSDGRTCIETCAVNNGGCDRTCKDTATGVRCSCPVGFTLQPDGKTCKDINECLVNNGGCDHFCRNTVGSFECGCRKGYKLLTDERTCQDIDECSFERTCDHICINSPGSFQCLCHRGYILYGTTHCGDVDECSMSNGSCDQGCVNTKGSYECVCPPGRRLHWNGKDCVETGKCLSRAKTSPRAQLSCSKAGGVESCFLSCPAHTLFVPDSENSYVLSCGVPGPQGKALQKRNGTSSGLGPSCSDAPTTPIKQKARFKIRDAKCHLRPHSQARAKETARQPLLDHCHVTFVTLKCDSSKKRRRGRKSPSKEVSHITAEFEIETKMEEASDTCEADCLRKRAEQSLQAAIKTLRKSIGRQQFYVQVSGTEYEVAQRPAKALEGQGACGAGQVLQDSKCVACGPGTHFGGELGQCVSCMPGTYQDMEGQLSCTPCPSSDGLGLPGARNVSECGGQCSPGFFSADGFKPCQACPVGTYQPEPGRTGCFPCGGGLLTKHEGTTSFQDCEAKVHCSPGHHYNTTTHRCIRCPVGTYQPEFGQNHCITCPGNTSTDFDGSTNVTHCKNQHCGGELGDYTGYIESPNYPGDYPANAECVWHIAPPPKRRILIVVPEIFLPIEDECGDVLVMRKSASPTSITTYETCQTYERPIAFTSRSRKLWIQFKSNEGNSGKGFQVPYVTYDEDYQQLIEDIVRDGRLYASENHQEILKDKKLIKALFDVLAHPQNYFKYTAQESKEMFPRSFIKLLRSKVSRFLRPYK
MYC-tagged SCUBE3 wild type (Q8IX30, residues 21-993): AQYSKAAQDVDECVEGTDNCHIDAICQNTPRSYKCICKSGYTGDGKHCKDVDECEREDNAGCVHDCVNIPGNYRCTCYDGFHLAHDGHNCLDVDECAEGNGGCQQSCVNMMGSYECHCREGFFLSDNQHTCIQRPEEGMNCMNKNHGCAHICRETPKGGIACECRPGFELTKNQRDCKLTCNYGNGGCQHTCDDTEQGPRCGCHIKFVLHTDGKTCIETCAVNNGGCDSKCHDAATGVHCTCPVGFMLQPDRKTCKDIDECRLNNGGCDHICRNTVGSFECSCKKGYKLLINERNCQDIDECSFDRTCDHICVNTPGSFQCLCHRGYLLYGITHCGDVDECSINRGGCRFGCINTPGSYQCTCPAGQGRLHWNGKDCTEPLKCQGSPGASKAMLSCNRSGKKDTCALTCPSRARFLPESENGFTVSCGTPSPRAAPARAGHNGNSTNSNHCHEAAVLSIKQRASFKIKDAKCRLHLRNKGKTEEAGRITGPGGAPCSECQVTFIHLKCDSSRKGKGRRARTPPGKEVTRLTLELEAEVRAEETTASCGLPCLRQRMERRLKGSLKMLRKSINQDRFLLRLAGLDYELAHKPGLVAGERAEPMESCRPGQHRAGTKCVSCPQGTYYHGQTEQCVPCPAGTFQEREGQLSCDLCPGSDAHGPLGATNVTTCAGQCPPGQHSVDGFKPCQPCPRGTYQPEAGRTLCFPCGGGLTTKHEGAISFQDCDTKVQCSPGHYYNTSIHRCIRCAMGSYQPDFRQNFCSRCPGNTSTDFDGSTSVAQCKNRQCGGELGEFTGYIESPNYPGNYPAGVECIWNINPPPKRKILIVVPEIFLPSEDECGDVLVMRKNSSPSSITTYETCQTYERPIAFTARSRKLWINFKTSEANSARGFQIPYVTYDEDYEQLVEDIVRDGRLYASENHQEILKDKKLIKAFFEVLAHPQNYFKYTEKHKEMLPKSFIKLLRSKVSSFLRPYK
MYC-tagged SCUBE3 p.(Thr231Ala) (Q8IX30-1, form named): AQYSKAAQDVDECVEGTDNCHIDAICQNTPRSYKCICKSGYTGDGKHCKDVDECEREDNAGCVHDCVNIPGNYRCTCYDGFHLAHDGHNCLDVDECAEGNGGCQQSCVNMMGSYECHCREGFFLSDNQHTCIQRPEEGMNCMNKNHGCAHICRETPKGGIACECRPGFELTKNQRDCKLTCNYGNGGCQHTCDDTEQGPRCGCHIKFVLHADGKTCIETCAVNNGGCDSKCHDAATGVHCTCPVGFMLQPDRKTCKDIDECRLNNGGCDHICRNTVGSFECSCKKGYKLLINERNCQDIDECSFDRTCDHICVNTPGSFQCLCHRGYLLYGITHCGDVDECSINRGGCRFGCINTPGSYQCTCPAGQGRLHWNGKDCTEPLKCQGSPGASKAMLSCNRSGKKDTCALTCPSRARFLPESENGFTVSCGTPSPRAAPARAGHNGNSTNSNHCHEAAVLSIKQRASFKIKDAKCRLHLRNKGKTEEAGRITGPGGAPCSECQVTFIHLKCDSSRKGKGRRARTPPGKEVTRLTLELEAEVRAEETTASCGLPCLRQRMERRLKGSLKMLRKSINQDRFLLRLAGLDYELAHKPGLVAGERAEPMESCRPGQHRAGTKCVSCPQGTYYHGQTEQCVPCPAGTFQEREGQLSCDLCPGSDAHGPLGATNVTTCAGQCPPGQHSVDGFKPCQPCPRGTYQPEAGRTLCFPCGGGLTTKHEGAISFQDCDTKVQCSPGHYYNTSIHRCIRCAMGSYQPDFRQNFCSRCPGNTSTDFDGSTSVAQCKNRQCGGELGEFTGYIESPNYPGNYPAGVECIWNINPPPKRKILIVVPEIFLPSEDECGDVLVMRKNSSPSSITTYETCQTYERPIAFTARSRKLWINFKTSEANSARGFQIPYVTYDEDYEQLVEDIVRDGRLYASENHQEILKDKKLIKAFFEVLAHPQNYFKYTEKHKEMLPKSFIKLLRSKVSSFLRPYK

These are yes or no findings as the source states them, for the method shown. Binding seen in cells or lysates may run through a third protein. Some binding calls cover weakened binding; strength is not graded here.

Regarding “MYC-tagged SCUBE3 wild type (from UniProt Q8IX30-1 21-993)”, the binding entry is reported as “binds”.

As for “MYC-tagged SCUBE3 p.(Thr231Ala) (from UniProt Q8IX30-1 21-993)”, the binding result was “binds”.

For the origin of these results see publication PMC8246263.
